The other results are listed elsewhere or left out. Repeats are few or missing, and single values can be far off.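 The apoptosis fraction was the count of cleaved-PARP antibody-stained nuclei relative to all DNA-stained nuclei, imaged in 1,536-well plates. Screening doses were set so most cells survived, and baseline and induced cleaved-PARP levels vary greatly across cell lines.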
Key:
Assay in all cases: cleaved PARP positive nuclei fraction relative to DMSO control; melanoma cells; higher = more apoptosis
Details in all cases: library dose: low library concentration; 72 h
MZ2-MEL = tested on: MZ2-MEL
MeWo = tested on: MeWo
RPMI7951 = tested on: RPMI7951
RVH-421 = tested on: RVH-421
SkMel28 = tested on: SkMel28
SkMel2 = tested on: SkMel2
SkMel30 = tested on: SkMel30
UACC62 = tested on: UACC62
WM115 = tested on: WM115
WM1716 = tested on: WM1716
WM1745 = tested on: WM1745
WM3526 = tested on: WM3526
WM3619 = tested on: WM3619
WM451Lu = tested on: WM451Lu
SkMel5 = tested on: SkMel5
UACC257 = tested on: UACC257

Compound | cleaved PARP positive nuclei fraction (MZ2-MEL) | cleaved PARP positive nuclei fraction (MeWo) | cleaved PARP positive nuclei fraction (RPMI7951) | cleaved PARP positive nuclei fraction (RVH-421) | cleaved PARP positive nuclei fraction (SkMel28) | cleaved PARP positive nuclei fraction (SkMel2) | cleaved PARP positive nuclei fraction (SkMel30) | cleaved PARP positive nuclei fraction (UACC62) | cleaved PARP positive nuclei fraction (WM115) | cleaved PARP positive nuclei fraction (WM1716) | cleaved PARP positive nuclei fraction (WM1745) | cleaved PARP positive nuclei fraction (WM3526) | cleaved PARP positive nuclei fraction (WM3619) | cleaved PARP positive nuclei fraction (WM451Lu) | cleaved PARP positive nuclei fraction (SkMel5) | cleaved PARP positive nuclei fraction (UACC257)
O=C(Nc1cc(C(F)(F)F)cc(C(F)(F)F)c1)c1cc(Cl)ccc1O + C=CCNC1=C2C[C@@H](C)C[C@H](OC)[C@H](O)[C@@H](C)/C=C(\C)[C@H](OC(N)=O)[C@@H](OC)/C=C\C=C(/C)C(=O)NC(=CC1=O)C2=O [Tanespimycin] (first compound 0.016 µM, partner dose 0.002 µM) | 84.7% | 118% | 139% | 98.6% | 71.6% | 117% | 65.9% | 76.7% | 86.4% | 107% | 115% | 42.5% | 97.4% | 142% |  | 
Cc1cc(Nc2cc(N3CCN(C)CC3)nc(Sc3ccc(NC(=O)C4CC4)cc3)n2)n[nH]1 [Tozasertib] + Nc1nc(F)nc2c1ncn2[C@@H]1O[C@H](CO)[C@@H](O)[C@@H]1O [fludarabine] (first compound 0.006 µM, partner dose 0.2 µM) | 21.5% | 968% | 156% | 93.9% | 95.3% | 1470% | 1500% | 335% | 82.3% | 118% | 119% | 545% | 95.3% | 358% |  | 
COc1cc([C@@H]2c3cc4c(cc3[C@@H](O[C@@H]3O[C@@H]5CO[C@@H](C)O[C@H]5[C@H](O)[C@H]3O)[C@H]3COC(=O)[C@H]23)OCO4)cc(OC)c1O [etoposide] + COc1ccc2c(c1)CCC1C2CCC2(C)C(NCCCCCCN3C(=O)C=CC3=O)CCC12 [U73122] (first compound 0.02 µM, partner dose 0.4 µM) | 98% | 63.9% | 69% | 128% | 164% | 90.9% | 83.9% | 167% | 71.9% | 77.9% | 103% | 75.1% | 108% | 45.9% | 83.3% | 
CC[C@]1(O)C[C@H]2CN(CCc3c([nH]c4ccccc34)[C@@](C(=O)OC)(c3cc4c(cc3OC)N(C=O)[C@H]3[C@@](O)(C(=O)OC)[C@H](OC(C)=O)[C@]5(CC)C=CCN6CC[C@]43[C@@H]65)C2)C1 [vincristine] + CN(c1ncccc1CNc1nc(Nc2ccc3c(c2)CC(=O)N3)ncc1C(F)(F)F)S(C)(=O)=O [PF562271] (first compound 0.0001 µM, partner dose 0.08 µM) | 181% | 149% | 79.5% | 208% | 84% | 175% | 291% | 329% | 1080% | 158% | 101% | 52.9% | 244% | 166% |  | 
COc1cc([C@@H]2c3cc4c(cc3[C@@H](O[C@@H]3O[C@@H]5CO[C@@H](C)O[C@H]5[C@H](O)[C@H]3O)[C@H]3COC(=O)[C@H]23)OCO4)cc(OC)c1O [etoposide] + Cc1cc(N2CCOCC2)cc2[nH]c(-c3c(NC[C@@H](O)c4cccc(Cl)c4)cc[nH]c3=O)nc12 [BMS536924] (first compound 0.02 µM, partner dose 0.2 µM) | 121% | 249% | 108% | 118% | 150% | 160% | 81.1% |  | 38.5% | 126% |  | 65.9% | 116% | 120% | 71.2% | 33.2%
COc1cc([C@@H]2c3cc4c(cc3[C@@H](O[C@@H]3O[C@@H]5CO[C@@H](C)O[C@H]5[C@H](O)[C@H]3O)[C@H]3COC(=O)[C@H]23)OCO4)cc(OC)c1O [etoposide] + C[C@]1(c2nc3c(C(N)=O)cccc3[nH]2)CCCN1 [Veliparib] (first compound 0.02 µM, partner dose 1.4 µM) | 70.2% | 79% | 75.6% | 31% | 74.3% | 194% | 60.9% | 72.6% | 157% | 79.5% | 105% | 18% | 99% | 23.3% |  | 
O=c1[nH]nc(Sc2ncc([N+](=O)[O-])s2)n1-c1ccc2c(c1)OCCO2 + Clc1ccc(Nc2nnc(Cc3ccncc3)c3ccccc23)cc1 [vatalanib] (first compound 0.2 µM, partner dose 2 µM) | 26.5% | 129% | 106% | 66.5% | 90.9% | 97.2% | 66.4% | 244% | 141% | 77.6% | 106% | 95.6% | 101% | 70% |  | 
O=C(Nc1cc(C(F)(F)F)cc(C(F)(F)F)c1)c1cc(Cl)ccc1O + C[C@]1(O)C[C@@H](c2nc(-c3ccc4ccc(-c5ccccc5)nc4c3)c3c(N)nccn32)C1 [OSI906] (first compound 0.016 µM, partner dose 0.4 µM) | 107% | 105% | 40% | 41.8% | 298% | 80.5% | 97.7% | 406% | 102% | 136% | 121% | 78.5% | 91.9% | 264% |  | 
Cc1cc(Nc2cc(N3CCN(C)CC3)nc(Sc3ccc(NC(=O)C4CC4)cc3)n2)n[nH]1 [Tozasertib] + Cn1cnc2c(F)c(Nc3ccc(Br)cc3Cl)c(C(=O)NOCCO)cc21 [selumetinib] (first compound 0.006 µM, partner dose 0.015 µM) | 88.4% | 144% | 92.9% | 65.2% | 76.8% | 79.7% | 64.8% | 122% | 52% | 144% | 104% | 100% | 108% | 88.6% |  | 
Cc1cn(-c2cc(NC(=O)c3ccc(C)c(Nc4nccc(-c5cccnc5)n4)c3)cc(C(F)(F)F)c2)cn1 [nilotinib] + CC(C)C[C@H](NC(=O)[C@H](Cc1ccccc1)NC(=O)c1cnccn1)B(O)O [Bortezomib] (first compound 0.2 µM, partner dose 0.001 µM) | 159% | 69.9% | 190% | 130% | 71% | 56.7% | 65.1% | 50.4% | 15.3% | 81.6% | 108% | 64% | 112% | 357% |  | 
Cc1cc(Nc2cc(N3CCN(C)CC3)nc(Sc3ccc(NC(=O)C4CC4)cc3)n2)n[nH]1 [Tozasertib] + O=c1[nH]nc(Sc2ncc([N+](=O)[O-])s2)n1-c1ccc2c(c1)OCCO2 [BI78D3] (first compound 0.006 µM, partner dose 0.2 µM) | 123% | 60.6% | 139% | 129% | 80% | 83.9% | 70.4% | 140% | 141% | 40.3% | 97.7% | 78.2% | 97.1% | 42.8% |  | 
CCCCCCCCCCCCCCCCCCOP(=O)([O-])OC1CC[N+](C)(C)CC1 [Perifosine] + C[C@]1(c2nc3c(C(N)=O)cccc3[nH]2)CCCN1 [Veliparib] (first compound 0.4 µM, partner dose 1.4 µM) | 85% | 121% | 308% | 90.5% | 76.6% | 122% | 31% | 2330% | 163% | 90.6% | 115% | 63.4% | 134% | 54.8% |  | 
O=C(Nc1cc(C(F)(F)F)cc(C(F)(F)F)c1)c1cc(Cl)ccc1O + Clc1ccc(Nc2nnc(Cc3ccncc3)c3ccccc23)cc1 [vatalanib] (first compound 0.016 µM, partner dose 2 µM) | 25% | 148% | 154% | 47.2% | 95.6% | 30.7% | 107% | 75.4% | 80.1% | 173% | 101% | 37% | 73.3% | 388% |  | 
Cc1cc(Nc2cc(N3CCN(C)CC3)nc(Sc3ccc(NC(=O)C4CC4)cc3)n2)n[nH]1 [Tozasertib] + CCCCCCCCCCCCCCCCCCOP(=O)([O-])OC1CC[N+](C)(C)CC1 [Perifosine] (first compound 0.006 µM, partner dose 0.4 µM) | 105% | 88.2% | 89.7% | 108% | 81.2% | 25.7% | 23.6% | 176% | 146% | 35.6% | 88.2% | 37.8% | 102% | 38.7% |  | 
O=C(/C=C/c1cccnc1)NCCCCC1CCN(C(=O)c2ccccc2)CC1 + CN1CCN(c2ccc3nc(-c4c(N)c5c(F)cccc5[nH]c4=O)[nH]c3c2)CC1 [Dovitinib] (first compound 0.01 µM, partner dose 0.1 µM) | 273% | 86.9% | 43% | 169% | 101% | 1260% | 149% | 34.5% | 112% | 158% | 105% | 76.9% | 107% | 80.2% |  | 
N#CC[C@H](C1CCCC1)n1cc(-c2ncnc3[nH]ccc23)cn1 [ruxolitinib] + Nc1ccn([C@@H]2O[C@H](CO)[C@@H](O)C2(F)F)c(=O)n1 [gemcitabine] (first compound 1 µM, partner dose 0.0004 µM) | 129% | 99.8% | 59.1% | 207% | 97.8% | 113% | 105% | 61.2% | 113% | 94.6% | 117% | 77.6% | 137% | 327% |  | 
Cc1cc(Nc2cc(N3CCN(C)CC3)nc(Sc3ccc(NC(=O)C4CC4)cc3)n2)n[nH]1 [Tozasertib] + NC1(c2ccc(-c3nc4ccn5c(=O)[nH]nc5c4cc3-c3ccccc3)cc2)CCC1 [MK2206] (first compound 0.006 µM, partner dose 0.4 µM) | 82.1% | 155% | 244% | 155% | 82.8% | 15% | 106% | 56.6% | 29.7% | 173% | 114% | 60.1% | 99.7% | 34% |  | 

An excerpt from the list above:
Compound | cleaved PARP positive nuclei fraction (MZ2-MEL) | cleaved PARP positive nuclei fraction (MeWo) | cleaved PARP positive nuclei fraction (RPMI7951) | cleaved PARP positive nuclei fraction (RVH-421) | cleaved PARP positive nuclei fraction (SkMel28) | cleaved PARP positive nuclei fraction (SkMel2) | cleaved PARP positive nuclei fraction (SkMel30) | cleaved PARP positive nuclei fraction (UACC62) | cleaved PARP positive nuclei fraction (WM115) | cleaved PARP positive nuclei fraction (WM1716) | cleaved PARP positive nuclei fraction (WM1745) | cleaved PARP positive nuclei fraction (WM3526) | cleaved PARP positive nuclei fraction (WM3619) | cleaved PARP positive nuclei fraction (WM451Lu) | cleaved PARP positive nuclei fraction (SkMel5) | cleaved PARP positive nuclei fraction (UACC257)
O=C(Nc1cc(C(F)(F)F)cc(C(F)(F)F)c1)c1cc(Cl)ccc1O + Clc1ccc(Nc2nnc(Cc3ccncc3)c3ccccc23)cc1 [vatalanib] (first compound 0.016 µM, partner dose 2 µM) | 25% | 148% | 154% | 47.2% | 95.6% | 30.7% | 107% | 75.4% | 80.1% | 173% | 101% | 37% | 73.3% | 388% |  | 
Cc1cc(Nc2cc(N3CCN(C)CC3)nc(Sc3ccc(NC(=O)C4CC4)cc3)n2)n[nH]1 [Tozasertib] + CCCCCCCCCCCCCCCCCCOP(=O)([O-])OC1CC[N+](C)(C)CC1 [Perifosine] (first compound 0.006 µM, partner dose 0.4 µM) | 105% | 88.2% | 89.7% | 108% | 81.2% | 25.7% | 23.6% | 176% | 146% | 35.6% | 88.2% | 37.8% | 102% | 38.7% |  | 

From the supplement of paper PMC4604168 (melanoma cell lines)
